Measurements reported in the supplement of paper PMC7666118.
The other results are listed elsewhere or left out.

By UniProt entry, the sequences of proteins in these tests, tags left out. Where a name states a change or a piece, a line headed by the entry shows the natural chain unless it says otherwise.
UniProt Q9Y6M7: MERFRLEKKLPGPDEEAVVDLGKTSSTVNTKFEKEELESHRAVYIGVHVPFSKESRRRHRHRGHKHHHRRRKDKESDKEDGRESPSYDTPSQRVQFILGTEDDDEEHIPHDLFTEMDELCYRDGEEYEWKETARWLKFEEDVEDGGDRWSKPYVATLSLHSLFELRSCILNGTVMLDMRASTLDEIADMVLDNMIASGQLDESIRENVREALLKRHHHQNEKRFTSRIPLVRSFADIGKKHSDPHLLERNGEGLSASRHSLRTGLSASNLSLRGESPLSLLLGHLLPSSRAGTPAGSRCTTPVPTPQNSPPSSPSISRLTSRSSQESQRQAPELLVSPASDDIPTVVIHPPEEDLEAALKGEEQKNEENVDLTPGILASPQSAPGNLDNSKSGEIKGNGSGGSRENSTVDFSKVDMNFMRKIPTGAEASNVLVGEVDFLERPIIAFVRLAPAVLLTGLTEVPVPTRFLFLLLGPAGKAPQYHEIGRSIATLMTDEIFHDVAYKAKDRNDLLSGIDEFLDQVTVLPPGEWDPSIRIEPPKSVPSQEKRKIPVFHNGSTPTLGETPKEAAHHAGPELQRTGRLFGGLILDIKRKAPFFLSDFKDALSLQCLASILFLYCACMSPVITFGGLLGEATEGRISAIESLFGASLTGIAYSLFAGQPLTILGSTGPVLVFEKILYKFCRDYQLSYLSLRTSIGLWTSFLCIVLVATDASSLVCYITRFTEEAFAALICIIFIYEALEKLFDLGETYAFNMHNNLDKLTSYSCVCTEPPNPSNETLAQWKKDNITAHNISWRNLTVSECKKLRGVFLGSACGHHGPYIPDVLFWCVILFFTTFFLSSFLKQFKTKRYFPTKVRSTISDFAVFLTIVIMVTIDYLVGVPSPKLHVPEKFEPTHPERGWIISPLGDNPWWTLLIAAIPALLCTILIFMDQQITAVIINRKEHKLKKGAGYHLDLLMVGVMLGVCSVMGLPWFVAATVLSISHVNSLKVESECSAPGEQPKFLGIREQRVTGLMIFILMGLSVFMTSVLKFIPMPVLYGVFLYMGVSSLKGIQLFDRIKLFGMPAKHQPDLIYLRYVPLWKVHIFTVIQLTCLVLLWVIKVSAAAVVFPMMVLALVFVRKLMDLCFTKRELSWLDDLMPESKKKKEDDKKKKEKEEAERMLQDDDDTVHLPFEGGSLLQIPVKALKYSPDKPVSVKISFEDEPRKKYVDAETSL
UniProt Q15459: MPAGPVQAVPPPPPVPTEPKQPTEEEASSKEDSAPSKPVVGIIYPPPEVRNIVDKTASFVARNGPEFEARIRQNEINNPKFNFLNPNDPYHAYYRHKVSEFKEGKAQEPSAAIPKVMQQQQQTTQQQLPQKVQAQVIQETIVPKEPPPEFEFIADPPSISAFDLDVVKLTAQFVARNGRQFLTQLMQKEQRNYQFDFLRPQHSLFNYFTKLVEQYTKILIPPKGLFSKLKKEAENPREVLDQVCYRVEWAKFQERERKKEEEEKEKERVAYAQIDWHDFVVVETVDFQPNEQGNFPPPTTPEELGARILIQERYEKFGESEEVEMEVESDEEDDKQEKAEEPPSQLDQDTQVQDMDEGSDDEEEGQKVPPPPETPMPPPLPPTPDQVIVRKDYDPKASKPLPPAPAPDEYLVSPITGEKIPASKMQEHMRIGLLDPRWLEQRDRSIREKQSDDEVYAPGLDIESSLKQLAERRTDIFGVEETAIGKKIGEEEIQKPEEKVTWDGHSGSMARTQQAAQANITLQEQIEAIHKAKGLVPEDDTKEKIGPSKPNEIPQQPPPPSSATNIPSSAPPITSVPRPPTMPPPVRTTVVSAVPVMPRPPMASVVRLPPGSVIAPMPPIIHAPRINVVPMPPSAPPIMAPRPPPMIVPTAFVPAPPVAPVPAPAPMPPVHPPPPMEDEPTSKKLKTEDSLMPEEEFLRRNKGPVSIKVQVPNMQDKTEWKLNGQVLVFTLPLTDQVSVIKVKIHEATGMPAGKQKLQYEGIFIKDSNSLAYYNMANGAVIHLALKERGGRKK
UniProt P62306, whole entry, looked up: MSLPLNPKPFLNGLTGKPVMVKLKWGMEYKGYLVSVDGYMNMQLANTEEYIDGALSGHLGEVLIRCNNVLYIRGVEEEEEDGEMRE
UniProt P84022, whole entry, looked up: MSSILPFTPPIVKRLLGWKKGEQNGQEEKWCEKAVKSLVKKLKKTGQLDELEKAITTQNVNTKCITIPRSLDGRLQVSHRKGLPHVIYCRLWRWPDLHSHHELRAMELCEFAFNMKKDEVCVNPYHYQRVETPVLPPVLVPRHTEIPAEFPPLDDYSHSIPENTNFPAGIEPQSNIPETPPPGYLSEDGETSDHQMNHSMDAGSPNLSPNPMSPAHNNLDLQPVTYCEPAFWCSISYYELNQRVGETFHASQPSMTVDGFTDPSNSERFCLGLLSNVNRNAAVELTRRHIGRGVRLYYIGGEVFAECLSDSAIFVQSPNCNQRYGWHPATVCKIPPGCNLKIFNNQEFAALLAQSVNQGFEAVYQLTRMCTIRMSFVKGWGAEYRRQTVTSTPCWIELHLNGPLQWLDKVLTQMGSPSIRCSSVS
UniProt Q9Y5W7: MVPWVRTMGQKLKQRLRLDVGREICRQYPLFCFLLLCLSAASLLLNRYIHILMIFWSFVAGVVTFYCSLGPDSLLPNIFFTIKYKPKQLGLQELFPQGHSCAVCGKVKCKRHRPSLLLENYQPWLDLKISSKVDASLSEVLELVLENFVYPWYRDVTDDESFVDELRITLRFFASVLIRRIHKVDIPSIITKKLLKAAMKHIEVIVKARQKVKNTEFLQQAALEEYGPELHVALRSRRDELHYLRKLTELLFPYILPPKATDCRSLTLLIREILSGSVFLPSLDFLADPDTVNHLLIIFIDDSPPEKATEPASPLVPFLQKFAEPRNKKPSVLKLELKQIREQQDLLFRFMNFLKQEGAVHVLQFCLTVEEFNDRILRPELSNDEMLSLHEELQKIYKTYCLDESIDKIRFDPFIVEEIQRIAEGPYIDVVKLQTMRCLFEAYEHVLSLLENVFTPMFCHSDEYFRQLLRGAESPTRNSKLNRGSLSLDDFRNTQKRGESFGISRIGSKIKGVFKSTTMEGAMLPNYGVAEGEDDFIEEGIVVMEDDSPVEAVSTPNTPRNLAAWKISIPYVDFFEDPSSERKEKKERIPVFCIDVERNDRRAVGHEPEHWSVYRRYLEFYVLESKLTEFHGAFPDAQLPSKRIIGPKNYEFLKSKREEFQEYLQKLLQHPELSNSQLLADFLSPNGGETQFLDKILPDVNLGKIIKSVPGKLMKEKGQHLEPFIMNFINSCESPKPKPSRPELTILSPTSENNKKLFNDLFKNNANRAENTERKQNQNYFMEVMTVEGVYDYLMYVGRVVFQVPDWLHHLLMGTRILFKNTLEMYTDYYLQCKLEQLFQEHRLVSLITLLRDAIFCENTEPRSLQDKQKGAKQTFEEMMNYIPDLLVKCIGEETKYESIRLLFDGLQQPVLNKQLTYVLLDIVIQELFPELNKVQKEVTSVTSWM
UniProt P43007: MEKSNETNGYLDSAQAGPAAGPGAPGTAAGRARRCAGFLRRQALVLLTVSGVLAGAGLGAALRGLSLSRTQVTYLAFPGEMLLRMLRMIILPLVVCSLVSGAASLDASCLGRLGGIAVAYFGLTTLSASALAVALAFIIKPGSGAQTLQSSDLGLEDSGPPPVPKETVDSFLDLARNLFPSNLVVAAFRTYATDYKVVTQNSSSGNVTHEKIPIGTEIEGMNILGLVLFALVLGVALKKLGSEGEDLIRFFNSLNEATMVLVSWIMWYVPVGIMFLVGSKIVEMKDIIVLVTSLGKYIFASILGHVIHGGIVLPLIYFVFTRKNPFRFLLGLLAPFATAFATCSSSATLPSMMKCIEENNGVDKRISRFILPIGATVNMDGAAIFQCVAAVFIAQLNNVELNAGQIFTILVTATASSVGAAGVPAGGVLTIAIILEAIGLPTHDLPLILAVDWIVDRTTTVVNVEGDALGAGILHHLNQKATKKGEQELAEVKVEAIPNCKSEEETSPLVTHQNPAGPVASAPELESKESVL
UniProt P53007, whole entry, looked up: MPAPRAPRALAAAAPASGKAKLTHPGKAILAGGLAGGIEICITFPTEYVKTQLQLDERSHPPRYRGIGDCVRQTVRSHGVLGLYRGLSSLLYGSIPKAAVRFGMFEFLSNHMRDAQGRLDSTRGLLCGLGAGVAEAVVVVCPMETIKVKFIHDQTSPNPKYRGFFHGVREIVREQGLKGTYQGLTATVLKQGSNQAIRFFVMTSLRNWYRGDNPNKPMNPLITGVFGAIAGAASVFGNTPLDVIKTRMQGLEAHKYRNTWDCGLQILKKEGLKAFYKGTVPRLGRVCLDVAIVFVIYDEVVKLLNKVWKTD
UniProt O00161: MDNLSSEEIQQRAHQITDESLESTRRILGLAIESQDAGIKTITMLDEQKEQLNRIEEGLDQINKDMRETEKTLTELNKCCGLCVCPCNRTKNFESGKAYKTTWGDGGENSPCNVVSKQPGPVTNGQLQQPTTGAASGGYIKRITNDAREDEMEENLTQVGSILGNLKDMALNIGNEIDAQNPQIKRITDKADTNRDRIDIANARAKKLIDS
UniProt Q96ST3: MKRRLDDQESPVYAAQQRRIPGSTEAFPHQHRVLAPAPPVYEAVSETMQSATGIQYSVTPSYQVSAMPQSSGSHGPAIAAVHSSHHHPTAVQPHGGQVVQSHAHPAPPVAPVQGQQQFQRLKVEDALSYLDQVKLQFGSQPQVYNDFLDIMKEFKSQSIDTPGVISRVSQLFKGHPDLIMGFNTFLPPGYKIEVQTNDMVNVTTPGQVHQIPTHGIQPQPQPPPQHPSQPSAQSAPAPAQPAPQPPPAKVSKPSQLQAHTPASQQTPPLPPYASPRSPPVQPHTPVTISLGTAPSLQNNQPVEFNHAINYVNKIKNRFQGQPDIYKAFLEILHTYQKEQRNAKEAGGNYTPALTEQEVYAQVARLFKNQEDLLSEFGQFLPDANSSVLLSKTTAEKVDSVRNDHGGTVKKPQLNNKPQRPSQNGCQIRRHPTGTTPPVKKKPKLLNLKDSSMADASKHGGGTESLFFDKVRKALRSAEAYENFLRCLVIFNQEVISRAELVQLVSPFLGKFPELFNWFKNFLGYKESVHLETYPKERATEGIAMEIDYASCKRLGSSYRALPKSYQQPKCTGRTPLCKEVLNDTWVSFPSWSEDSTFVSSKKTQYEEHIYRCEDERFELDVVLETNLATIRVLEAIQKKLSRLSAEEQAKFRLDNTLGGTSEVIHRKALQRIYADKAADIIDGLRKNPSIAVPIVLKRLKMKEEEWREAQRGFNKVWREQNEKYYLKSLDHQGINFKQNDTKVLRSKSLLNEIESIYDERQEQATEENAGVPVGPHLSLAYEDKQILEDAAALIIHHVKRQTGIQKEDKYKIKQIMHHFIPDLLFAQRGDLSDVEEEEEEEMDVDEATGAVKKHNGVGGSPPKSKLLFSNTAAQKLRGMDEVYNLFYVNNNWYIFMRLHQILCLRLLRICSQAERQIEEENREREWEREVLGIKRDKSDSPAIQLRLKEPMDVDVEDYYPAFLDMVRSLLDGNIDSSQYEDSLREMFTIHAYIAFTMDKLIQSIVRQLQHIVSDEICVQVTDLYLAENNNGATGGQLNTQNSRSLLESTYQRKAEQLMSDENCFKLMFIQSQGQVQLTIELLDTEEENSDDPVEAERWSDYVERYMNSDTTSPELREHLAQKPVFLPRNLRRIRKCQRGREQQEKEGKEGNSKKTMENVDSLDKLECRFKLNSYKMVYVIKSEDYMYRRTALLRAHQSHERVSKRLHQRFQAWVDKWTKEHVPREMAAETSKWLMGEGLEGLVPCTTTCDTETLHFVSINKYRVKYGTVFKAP
UniProt O00400: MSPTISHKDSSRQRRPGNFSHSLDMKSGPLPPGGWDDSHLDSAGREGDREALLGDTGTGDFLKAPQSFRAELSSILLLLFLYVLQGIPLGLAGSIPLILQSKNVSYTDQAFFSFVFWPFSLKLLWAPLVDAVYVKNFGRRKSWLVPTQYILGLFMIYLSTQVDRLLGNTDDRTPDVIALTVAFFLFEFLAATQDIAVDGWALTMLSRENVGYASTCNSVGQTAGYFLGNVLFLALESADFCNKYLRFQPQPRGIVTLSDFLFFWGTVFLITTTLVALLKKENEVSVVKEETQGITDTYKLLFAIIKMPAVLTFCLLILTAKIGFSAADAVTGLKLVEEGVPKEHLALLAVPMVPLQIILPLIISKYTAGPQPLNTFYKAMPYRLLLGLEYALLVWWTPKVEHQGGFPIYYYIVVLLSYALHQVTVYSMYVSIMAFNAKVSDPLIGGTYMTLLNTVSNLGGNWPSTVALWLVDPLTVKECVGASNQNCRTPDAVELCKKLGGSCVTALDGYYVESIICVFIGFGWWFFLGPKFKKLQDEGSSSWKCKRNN

The targets below were run with COc1ccc(Cn2ccc3cc(C)c(C(=O)NO)cc32)cc1 (assay: dose-dependent thermal stabilisation call (2D-TPP, DLPTP, 10% FDR) (binary (1 = stabilised)); higher = stabilised by the compound). Conditions: system: HL-60 intact cells; concentration range 0.04-10 µM.
Procedure: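 2D thermal proteome profiling in intact HL-60 cells treated with BRD-3811 (0, 0.04, 0.29, 2, 10 uM) for 90 min at 37 C, then heated 3 min at one of 12 temperatures (42-63.9 C). Soluble protein was quantified by TMT10 MS. The value is the DLPTP call of the paper: dose-dependent thermal stabilisation over all temperatures at 10% FDR (F-test of a dose-response against a flat model); one experiment, one call per tested protein.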

Row | Target | dose-dependent thermal stabilisation call
1 | SLC4A7 (UniProt Q9Y6M7) | inactive: 0
2 | SF3A1 (UniProt Q15459) | inactive: 0
3 | SNRPF (UniProt P62306) | inactive: 0
4 | SMAD3 (UniProt P84022) | inactive: 0
5 | SNX14 (UniProt Q9Y5W7) | inactive: 0
6 | SLC1A4 (UniProt P43007) | inactive: 0
7 | SLC25A1 (UniProt P53007) | inactive: 0
8 | SNAP23 (UniProt O00161) | inactive: 0
9 | SIN3A (UniProt Q96ST3) | inactive: 0
10 | SLC33A1 (UniProt O00400) | inactive: 0
